Test results taken from publication doi:10.1101/2020.05.12.092148.
These are yes or no findings as the source states them, for the method shown. In cells and extracts the contact can be indirect. For some of these results: Sequences can lack the tags named with a protein.

Sequences of proteins named here, by UniProt entry; tags and fusion partners are left off. A line that says so, or that is headed by a name, gives the form on record, which may keep a tag or linker. Residues count along the entry.
Flag-tagged E-cadherin transmembrane region together with the CT (TM-CT), residues 712-886 (F1PAA9, residues 712-885): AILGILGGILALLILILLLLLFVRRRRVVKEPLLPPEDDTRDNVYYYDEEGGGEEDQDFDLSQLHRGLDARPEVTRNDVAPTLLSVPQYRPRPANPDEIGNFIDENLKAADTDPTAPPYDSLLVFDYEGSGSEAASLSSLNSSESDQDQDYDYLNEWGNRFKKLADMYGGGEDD
Flag-tagged E-cadherin cytosolic C-terminal tail (CT), residues 735-886 (F1PAA9, residues 735-885): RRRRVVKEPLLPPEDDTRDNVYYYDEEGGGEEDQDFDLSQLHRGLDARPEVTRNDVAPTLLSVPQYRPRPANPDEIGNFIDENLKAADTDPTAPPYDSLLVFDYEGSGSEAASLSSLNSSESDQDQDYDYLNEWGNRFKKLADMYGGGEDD

T1: purified His-tagged Cap fragment protein of Piezo1 (mouse) (UniProt E2JF22)
T1 sequence: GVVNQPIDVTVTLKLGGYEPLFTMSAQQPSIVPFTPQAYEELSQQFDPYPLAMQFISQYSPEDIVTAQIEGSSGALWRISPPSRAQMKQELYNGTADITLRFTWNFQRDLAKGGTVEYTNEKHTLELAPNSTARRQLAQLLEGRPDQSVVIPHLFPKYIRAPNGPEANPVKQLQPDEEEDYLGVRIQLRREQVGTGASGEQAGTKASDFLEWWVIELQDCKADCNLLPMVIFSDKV


Tests used:
[1] = biological target: T1, purified His-tagged Cap fragment protein of Piezo1 (mouse); assay: pull-down
[2] = biological target: Piezo1-GST fusion protein (Piezo1-pp-GST-IRES-GFP construct) (mouse) (UniProt E2JF22); assay: pull-down
[3] = biological target: Flag-tagged E-cadherin cytosolic C-terminal tail (CT), residues 735-886 (canine) (UniProt F1PAA9); assay: co-IP
[4] = biological target: Flag-tagged E-cadherin transmembrane region together with the CT (TM-CT), residues 712-886 (canine) (UniProt F1PAA9); assay: co-IP

binding [1] | binding [2] | binding [3] | binding [4] | Molecule
no binding | no binding | – | – | Flag-tagged E-cadherin cytosolic C-terminal tail (CT), residues 735-886 (from UniProt F1PAA9 735-885) (domain or fragment)
– | – | no binding | no binding | purified His-tagged Cap fragment protein of Piezo1 (domain or fragment, UniProt E2JF22 2218-2453) GVVNQPIDVTVTLKLGGYEPLFTMSAQQPSIVPFTPQAYEELSQQFDPYPLAMQFISQYSPEDIVTAQIEGSSGALWRISPPSRAQMKQELYNGTADITLRFTWNFQRDLAKGGTVEYTNEKHTLELAPNSTARRQLAQLLEGRPDQSVVIPHLFPKYIRAPNGPEANPVKQLQPDEEEDYLGVRIQLRREQVGTGASGEQAGTKASDFLEWWVIELQDCKADCNLLPMVIFSDKV
